Source: the supplement of paper PMC6411743
± gives the standard deviation of the averaged measurements. This is a selection; strong and weak results do not stand in their true shares.

The chains behind the UniProt entries cited, without tags or fusion partners. Where a name states a change or a piece, a line headed by the entry shows the natural chain unless it says otherwise.
UniProt Q08378: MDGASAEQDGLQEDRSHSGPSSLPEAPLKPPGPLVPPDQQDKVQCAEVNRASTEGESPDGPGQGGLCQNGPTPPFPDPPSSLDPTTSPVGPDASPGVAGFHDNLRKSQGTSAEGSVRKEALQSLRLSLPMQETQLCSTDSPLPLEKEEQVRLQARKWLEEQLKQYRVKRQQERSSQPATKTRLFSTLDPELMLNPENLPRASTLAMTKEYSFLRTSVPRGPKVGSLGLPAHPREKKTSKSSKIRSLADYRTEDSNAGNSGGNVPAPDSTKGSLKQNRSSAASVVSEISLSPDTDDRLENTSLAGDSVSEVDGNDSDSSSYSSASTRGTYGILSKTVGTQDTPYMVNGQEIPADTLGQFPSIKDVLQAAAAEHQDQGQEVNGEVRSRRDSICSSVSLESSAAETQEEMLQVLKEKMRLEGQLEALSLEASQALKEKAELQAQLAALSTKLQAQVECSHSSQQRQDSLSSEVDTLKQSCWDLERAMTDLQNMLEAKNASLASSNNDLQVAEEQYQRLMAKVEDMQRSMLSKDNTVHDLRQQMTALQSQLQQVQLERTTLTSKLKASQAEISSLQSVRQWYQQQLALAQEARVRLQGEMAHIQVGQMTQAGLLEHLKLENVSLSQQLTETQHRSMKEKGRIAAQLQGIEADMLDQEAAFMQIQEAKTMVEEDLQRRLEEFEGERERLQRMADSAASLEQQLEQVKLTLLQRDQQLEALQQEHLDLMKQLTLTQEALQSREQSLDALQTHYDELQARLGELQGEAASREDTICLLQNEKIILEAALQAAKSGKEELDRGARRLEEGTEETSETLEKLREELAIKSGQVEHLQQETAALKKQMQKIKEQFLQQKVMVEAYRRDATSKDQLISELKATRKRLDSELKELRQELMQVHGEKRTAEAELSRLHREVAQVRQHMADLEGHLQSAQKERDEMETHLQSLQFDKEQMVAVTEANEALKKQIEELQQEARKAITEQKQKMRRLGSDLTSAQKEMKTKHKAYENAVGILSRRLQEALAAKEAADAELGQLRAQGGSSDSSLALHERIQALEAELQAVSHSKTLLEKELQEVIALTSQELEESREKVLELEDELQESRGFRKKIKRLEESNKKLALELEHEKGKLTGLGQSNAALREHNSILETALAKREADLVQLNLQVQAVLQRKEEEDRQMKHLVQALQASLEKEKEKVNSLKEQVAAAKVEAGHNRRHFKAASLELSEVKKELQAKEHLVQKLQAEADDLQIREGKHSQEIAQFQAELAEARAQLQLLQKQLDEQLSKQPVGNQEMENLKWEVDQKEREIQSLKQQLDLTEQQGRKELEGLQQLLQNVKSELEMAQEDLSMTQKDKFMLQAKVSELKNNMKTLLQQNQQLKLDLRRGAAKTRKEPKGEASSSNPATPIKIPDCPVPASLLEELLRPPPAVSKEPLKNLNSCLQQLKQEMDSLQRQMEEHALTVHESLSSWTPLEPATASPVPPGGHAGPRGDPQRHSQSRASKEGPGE
UniProt Q13740: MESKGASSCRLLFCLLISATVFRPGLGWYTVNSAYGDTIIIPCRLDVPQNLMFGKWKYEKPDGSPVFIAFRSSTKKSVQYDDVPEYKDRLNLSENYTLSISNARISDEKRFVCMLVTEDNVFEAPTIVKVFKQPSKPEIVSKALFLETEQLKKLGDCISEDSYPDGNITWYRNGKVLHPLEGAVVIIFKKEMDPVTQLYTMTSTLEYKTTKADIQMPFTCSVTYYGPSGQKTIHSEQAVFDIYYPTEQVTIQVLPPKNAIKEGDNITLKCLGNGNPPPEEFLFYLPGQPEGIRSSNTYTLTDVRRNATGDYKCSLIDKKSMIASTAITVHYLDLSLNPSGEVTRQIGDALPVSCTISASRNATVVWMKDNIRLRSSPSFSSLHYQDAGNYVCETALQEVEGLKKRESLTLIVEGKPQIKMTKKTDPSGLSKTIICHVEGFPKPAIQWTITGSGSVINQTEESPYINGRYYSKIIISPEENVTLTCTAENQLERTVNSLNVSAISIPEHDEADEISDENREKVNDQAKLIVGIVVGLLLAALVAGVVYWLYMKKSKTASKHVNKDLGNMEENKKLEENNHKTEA
UniProt Q00765: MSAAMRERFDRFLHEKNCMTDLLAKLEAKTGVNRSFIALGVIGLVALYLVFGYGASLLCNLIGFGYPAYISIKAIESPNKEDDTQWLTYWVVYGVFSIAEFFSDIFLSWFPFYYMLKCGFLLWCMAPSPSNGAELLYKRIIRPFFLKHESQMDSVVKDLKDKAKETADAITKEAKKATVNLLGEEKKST
UniProt Q09328: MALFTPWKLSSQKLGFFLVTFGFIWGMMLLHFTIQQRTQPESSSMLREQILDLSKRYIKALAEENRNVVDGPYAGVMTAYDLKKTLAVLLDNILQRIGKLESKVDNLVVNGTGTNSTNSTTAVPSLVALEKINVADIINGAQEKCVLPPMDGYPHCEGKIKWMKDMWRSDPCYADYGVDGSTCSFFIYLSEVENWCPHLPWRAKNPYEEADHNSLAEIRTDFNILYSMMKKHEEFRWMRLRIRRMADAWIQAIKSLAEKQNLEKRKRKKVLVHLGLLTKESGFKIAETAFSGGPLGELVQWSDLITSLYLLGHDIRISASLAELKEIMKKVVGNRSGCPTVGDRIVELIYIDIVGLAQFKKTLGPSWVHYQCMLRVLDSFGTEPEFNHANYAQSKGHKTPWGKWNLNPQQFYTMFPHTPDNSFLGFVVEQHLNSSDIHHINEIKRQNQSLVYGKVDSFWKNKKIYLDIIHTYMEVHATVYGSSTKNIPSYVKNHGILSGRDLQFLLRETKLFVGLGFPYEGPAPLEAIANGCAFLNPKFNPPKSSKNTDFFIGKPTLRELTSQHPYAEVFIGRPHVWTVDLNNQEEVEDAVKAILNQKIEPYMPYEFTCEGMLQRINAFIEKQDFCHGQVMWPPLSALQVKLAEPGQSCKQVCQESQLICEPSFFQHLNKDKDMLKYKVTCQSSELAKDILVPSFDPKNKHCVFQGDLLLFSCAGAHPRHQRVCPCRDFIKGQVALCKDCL
UniProt Q01968: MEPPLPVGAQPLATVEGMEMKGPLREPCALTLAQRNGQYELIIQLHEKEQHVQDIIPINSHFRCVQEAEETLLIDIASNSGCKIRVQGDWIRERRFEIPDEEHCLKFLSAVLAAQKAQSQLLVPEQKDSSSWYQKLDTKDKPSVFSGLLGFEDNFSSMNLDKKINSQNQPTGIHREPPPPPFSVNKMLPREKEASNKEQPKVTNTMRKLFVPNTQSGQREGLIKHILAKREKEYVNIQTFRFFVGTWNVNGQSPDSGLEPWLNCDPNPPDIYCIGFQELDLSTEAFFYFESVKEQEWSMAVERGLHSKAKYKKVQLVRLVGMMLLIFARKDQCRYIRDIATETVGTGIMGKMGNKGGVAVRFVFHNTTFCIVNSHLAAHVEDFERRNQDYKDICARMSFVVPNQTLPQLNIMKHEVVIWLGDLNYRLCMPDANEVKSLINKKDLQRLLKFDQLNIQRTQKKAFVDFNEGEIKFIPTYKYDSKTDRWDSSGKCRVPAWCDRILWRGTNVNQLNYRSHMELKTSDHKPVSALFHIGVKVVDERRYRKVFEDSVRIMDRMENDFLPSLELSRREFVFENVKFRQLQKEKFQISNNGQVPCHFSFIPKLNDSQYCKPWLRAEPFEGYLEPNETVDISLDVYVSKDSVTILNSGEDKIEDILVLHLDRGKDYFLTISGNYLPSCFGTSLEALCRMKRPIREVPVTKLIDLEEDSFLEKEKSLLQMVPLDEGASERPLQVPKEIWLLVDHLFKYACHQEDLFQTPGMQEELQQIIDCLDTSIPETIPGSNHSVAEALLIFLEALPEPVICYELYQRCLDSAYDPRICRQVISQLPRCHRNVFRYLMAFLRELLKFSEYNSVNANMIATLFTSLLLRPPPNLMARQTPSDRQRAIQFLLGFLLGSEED
UniProt Q13576: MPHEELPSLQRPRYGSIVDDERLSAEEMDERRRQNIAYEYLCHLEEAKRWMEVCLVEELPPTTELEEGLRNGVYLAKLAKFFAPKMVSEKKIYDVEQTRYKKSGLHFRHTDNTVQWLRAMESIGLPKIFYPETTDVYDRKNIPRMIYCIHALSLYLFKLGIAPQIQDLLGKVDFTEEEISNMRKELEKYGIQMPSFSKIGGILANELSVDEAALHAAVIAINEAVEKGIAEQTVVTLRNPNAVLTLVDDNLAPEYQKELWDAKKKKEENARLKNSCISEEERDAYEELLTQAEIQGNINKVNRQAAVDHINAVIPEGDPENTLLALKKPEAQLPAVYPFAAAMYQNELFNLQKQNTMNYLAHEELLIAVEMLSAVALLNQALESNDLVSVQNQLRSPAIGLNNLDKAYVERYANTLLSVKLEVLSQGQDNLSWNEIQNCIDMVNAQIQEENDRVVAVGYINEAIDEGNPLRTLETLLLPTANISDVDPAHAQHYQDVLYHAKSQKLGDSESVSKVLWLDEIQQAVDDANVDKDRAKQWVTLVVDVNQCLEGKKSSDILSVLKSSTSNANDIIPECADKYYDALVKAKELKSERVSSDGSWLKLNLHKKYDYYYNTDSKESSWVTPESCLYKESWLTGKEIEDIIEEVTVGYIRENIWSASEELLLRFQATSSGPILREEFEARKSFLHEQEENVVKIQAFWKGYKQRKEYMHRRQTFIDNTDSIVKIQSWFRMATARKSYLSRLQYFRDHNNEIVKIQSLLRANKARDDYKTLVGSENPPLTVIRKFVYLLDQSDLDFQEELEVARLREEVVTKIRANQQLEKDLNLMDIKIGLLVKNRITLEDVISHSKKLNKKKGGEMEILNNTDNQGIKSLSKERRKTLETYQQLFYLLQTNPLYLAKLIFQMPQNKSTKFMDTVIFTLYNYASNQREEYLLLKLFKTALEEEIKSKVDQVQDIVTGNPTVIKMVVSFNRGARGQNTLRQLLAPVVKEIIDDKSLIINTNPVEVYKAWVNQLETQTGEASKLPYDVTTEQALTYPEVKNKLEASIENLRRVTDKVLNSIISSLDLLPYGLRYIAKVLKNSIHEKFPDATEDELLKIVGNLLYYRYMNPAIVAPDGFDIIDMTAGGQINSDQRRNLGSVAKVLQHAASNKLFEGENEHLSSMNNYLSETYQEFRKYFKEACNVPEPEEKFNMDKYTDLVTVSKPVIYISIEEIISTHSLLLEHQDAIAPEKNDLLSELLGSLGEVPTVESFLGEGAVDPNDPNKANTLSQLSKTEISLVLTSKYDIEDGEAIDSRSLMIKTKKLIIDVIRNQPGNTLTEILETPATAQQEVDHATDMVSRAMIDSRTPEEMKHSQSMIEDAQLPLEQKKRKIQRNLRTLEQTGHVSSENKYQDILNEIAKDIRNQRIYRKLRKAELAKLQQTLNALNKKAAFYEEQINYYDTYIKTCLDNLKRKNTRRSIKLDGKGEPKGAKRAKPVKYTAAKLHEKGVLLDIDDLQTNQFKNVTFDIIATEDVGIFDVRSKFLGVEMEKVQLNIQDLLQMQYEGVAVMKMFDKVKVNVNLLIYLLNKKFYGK
UniProt Q13423: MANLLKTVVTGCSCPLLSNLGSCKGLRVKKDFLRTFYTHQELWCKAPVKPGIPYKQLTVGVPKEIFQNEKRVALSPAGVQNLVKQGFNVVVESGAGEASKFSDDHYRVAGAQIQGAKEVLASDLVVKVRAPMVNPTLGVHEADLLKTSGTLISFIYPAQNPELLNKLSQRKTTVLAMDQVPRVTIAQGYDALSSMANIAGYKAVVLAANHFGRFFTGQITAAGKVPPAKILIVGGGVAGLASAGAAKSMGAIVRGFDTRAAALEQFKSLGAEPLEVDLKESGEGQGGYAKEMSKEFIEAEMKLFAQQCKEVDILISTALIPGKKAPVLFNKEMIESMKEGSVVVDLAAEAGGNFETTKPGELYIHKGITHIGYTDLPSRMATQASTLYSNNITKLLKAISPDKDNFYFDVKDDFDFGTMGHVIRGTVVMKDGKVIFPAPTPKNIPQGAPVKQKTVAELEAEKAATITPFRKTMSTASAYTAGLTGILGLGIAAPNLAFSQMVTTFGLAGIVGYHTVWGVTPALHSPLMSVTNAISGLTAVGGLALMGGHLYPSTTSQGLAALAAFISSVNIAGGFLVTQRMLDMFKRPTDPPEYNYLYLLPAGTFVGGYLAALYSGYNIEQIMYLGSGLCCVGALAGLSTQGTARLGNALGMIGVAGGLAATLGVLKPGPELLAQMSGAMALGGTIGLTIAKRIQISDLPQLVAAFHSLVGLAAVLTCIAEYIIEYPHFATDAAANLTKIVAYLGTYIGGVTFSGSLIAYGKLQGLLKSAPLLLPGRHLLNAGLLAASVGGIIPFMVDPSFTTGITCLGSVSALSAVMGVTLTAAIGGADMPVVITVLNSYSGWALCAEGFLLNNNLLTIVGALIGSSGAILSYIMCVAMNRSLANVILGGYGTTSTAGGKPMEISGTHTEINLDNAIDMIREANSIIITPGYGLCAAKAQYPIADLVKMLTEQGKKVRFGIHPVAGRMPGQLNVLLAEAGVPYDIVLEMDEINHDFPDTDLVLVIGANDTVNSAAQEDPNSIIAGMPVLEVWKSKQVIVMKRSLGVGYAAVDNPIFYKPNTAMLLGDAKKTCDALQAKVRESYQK

Compound: Nc1ncnc2c1ncn2[C@@H]1O[C@H](COP(=O)(O)OP(=O)(O)OP(=O)(O)O)[C@@H](O)[C@H]1O [adenosine triphosphate]
Assay: NP40-soluble protein abundance relative to vehicle (solubility fold change) (ratio); higher = more soluble protein in presence of ATP
In short: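 In three independent experiments, Jurkat crude lysate made by Dounce homogenisation was treated for 10 min at room temperature and then 3 min at 37 °C with eight concentrations ranging from 0.1 to 10 mM. It was then solubilised with 0.8% NP40 plus benzonase for 60 min at 4 °C and ultracentrifuged. The supernatant was TMT-labelled for LC-MS/MS, and each value is the fold change against the detergent-processed vehicle for the same replicate, using vsn-normalised intensities.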

Row | Target | NP40-soluble protein abundance (concentration: 1mM) | NP40-soluble protein abundance (concentration: 2mM) | NP40-soluble protein abundance (concentration: 4mM) | NP40-soluble protein abundance (concentration: 6mM) | NP40-soluble protein abundance (concentration: 8mM) | NP40-soluble protein abundance (concentration: 10mM)
1 | UniProt Q13724 and related entries | 1.1 ± 0.12 | 1.06 ± 0.085 | 1.08 ± 0.088 | 1.01 ± 0.15 | 1.1 ± 0.083 | 1.08 ± 0.077
2 | UniProt Q01130 and related entries | 1.24 ± 0.12 | 1.23 ± 0.075 | 1.24 ± 0.053 | 1.31 ± 0.059 | 1.22 ± 0.025 | 1.24 ± 0.056
3 | UniProt Q13625 and related entries | 0.98 ± 0.023 | 0.986 ± 0.017 | 0.969 ± 0.024 | 1 ± 0.024 | 0.951 ± 0.041 | 0.979 ± 0.015
4 | CUL1 (UniProt Q13616) | 0.993 ± 0.083 | 0.97 ± 0.053 | 0.933 ± 0.054 | 0.934 ± 0.056 | 0.964 ± 0.042 | 0.941 ± 0.042
5 | GBE1 (UniProt Q04446) | 1.02 ± 0.063 | 1.01 ± 0.039 | 1.01 ± 0.064 | 0.983 ± 0.073 | 0.998 ± 0.061 | 1.01 ± 0.062
6 | HMGCS1 (UniProt Q01581) | 0.965 ± 0.079 | 0.965 ± 0.045 | 0.927 ± 0.044 | 0.942 ± 0.086 | 0.934 ± 0.04 | 0.941 ± 0.032
7 | GOLGA3 (UniProt Q08378) | 0.981 ± 0.088 | 0.965 ± 0.062 | 0.956 ± 0.053 | 1 ± 0.11 | 0.937 ± 0.049 | 0.94 ± 0.037
8 | SLFN5 (UniProt Q08AF3) | 1.16 ± 0.02 | 1.18 ± 0.027 | 1.18 ± 0.044 | 1.13 ± 0.061 | 1.18 ± 0.072 | 1.22 ± 0.069
9 | TARBP1 (UniProt Q13395) | 1.02 ± 0.06 | 1.058 ± 0.0072 | 1.059 ± 0.0099 | 0.943 ± 0.06 | 1.034 ± 0.0019 | 1.08 ± 0.045
10 | UniProt Q13740 and related entries | 0.9765 ± 0.0057 | 0.951 ± 0.012 | 0.984 ± 0.028 | 0.971 ± 0.032 | 0.939 ± 0.016 | 0.913 ± 0.054
11 | IDI1 (UniProt Q13907) | 0.945 ± 0.059 | 0.982 ± 0.068 | 0.93 ± 0.053 | 0.902 ± 0.051 | 0.913 ± 0.028 | 0.928 ± 0.049
12 | UniProt Q13422 and related entries | 1 ± 0.039 | 1.01 ± 0.054 | 1.03 ± 0.033 | 1.1 ± 0.07 | 1.08 ± 0.017 | 1.12 ± 0.036
13 | TUBB3 (UniProt Q13509) | 1.02 ± 0.058 | 0.997 ± 0.041 | 0.992 ± 0.041 | 0.986 ± 0.042 | 0.991 ± 0.015 | 1.02 ± 0.038
14 | GALNT1 (UniProt Q10472) | 1.04 ± 0.02 | 1.07 ± 0.063 | 1.06 ± 0.054 | 1.06 ± 0.059 | 1.03 ± 0.056 | 1.06 ± 0.023
15 | REEP5 (UniProt Q00765) | 0.865 ± 0.08 | 0.9 ± 0.035 | 0.896 ± 0.055 | 0.948 ± 0.092 | 0.873 ± 0.072 | 0.86 ± 0.028
16 | GNL2 (UniProt Q13823) | 1.08 ± 0.029 | 1.15 ± 0.024 | 1.23 ± 0.078 | 1.32 ± 0.06 | 1.29 ± 0.055 | 1.34 ± 0.071
17 | PPIL2 (UniProt Q13356) | 1.27 ± 0.014 | 1.277 ± 0.011 | 1.28 ± 0.023 | 1.3 ± 0.029 | 1.32 ± 0.049 | 1.34 ± 0.032

Quoted from above, entries 15 to 16
Row | Target | NP40-soluble protein abundance (concentration: 1mM) | NP40-soluble protein abundance (concentration: 2mM) | NP40-soluble protein abundance (concentration: 4mM) | NP40-soluble protein abundance (concentration: 6mM) | NP40-soluble protein abundance (concentration: 8mM) | NP40-soluble protein abundance (concentration: 10mM)
15 | REEP5 (UniProt Q00765) | 0.865 ± 0.08 | 0.9 ± 0.035 | 0.896 ± 0.055 | 0.948 ± 0.092 | 0.873 ± 0.072 | 0.86 ± 0.028
16 | GNL2 (UniProt Q13823) | 1.08 ± 0.029 | 1.15 ± 0.024 | 1.23 ± 0.078 | 1.32 ± 0.06 | 1.29 ± 0.055 | 1.34 ± 0.071

(further entries)

Row | Target | NP40-soluble protein abundance (concentration: 1mM) | NP40-soluble protein abundance (concentration: 2mM) | NP40-soluble protein abundance (concentration: 4mM) | NP40-soluble protein abundance (concentration: 6mM) | NP40-soluble protein abundance (concentration: 8mM) | NP40-soluble protein abundance (concentration: 10mM)
18 | UniProt Q13472 and related entries | 0.988 ± 0.017 | 0.981 ± 0.039 | 1.01 ± 0.026 | 1.006 ± 0.0087 | 1.04 ± 0.018 | 1.03 ± 0.035
19 | MGAT5 (UniProt Q09328) | 0.975 ± 0.074 | 1.01 ± 0.04 | 0.948 ± 0.16 | 1 ± 0.13 | 0.903 ± 0.061 | 0.927 ± 0.086
20 | UniProt Q01968 and related entries | 1.03 ± 0.053 | 1.06 ± 0.043 | 1.12 ± 0.089 | 1.03 ± 0.075 | 1.1 ± 0.032 | 1.05 ± 0.05
21 | SF3A3 (UniProt Q12874) | 1.09 ± 0.039 | 1.093 ± 0.0065 | 1.082 ± 0.0097 | 1.15 ± 0.019 | 1.13 ± 0.02 | 1.1 ± 0.034
22 | MAD2L1 (UniProt Q13257) | 0.979 ± 0.12 | 0.978 ± 0.059 | 0.946 ± 0.07 | 0.892 ± 0.13 | 0.964 ± 0.073 | 0.947 ± 0.023
23 | Q13888 and related entries (UniProt Q6P1K8+Q13888) | 1.1 ± 0.074 | 1.11 ± 0.031 | 1.15 ± 0.057 | 1.11 ± 0.078 | 1.15 ± 0.058 | 1.17 ± 0.08
24 | MTMR2 (UniProt Q13614) | 1.04 ± 0.032 | 1.09 ± 0.064 | 1.1 ± 0.019 | 1.02 ± 0.057 | 1.05 ± 0.068 | 1.09 ± 0.038
25 | IQGAP2 (UniProt Q13576) | 1.05 ± 0.047 | 1.04 ± 0.039 | 1.02 ± 0.028 | 1.01 ± 0.041 | 1.04 ± 0.021 | 1.03 ± 0.027
26 | NNT (UniProt Q13423) | 0.9855 ± 0.0053 | 0.988 ± 0.017 | 0.963 ± 0.015 | 0.973 ± 0.02 | 0.961 ± 0.016 | 0.958 ± 0.03
27 | UniProt Q12800 and related entries | 0.991 ± 0.16 | 1.03 ± 0.093 | 1.02 ± 0.096 | 0.952 ± 0.12 | 1.02 ± 0.11 | 1.06 ± 0.088
28 | UniProt Q13105 and related entries | 1.12 ± 0.012 | 1.07 ± 0.056 | 1.12 ± 0.062 | 1.31 ± 0.24 | 1.23 ± 0.069 | 1.28 ± 0.033
29 | UniProt Q12888 and related entries | 0.945 ± 0.031 | 0.9394 ± 0.0088 | 0.943 ± 0.016 | 0.953 ± 0.017 | 0.9195 ± 0.0086 | 0.94 ± 0.013
30 | UniProt Q13042 and related entries | 1.05 ± 0.093 | 1.02 ± 0.047 | 0.996 ± 0.018 | 0.898 ± 0.015 | 1.06 ± 0.058 | 1.01 ± 0.07
31 | UniProt Q13535 and related entries | 0.949 ± 0.18 | 1.02 ± 0.1 | 0.955 ± 0.099 | 1.06 ± 0.069 | 0.935 ± 0.055 | 0.971 ± 0.048
32 | UniProt Q01518 and related entries | 0.946 ± 0.051 | 0.921 ± 0.026 | 0.87 ± 0.046 | 0.929 ± 0.027 | 0.873 ± 0.05 | 0.892 ± 0.028
33 | UniProt Q04656 and related entries | 0.994 ± 0.023 | 1.01 ± 0.067 | 1.01 ± 0.063 | 0.986 ± 0.065 | 0.96 ± 0.029 | 0.958 ± 0.039
34 | FKBP4 (UniProt Q02790) | 0.989 ± 0.024 | 0.972 ± 0.024 | 0.927 ± 0.027 | 0.959 ± 0.063 | 0.94 ± 0.029 | 0.94 ± 0.041
